Measured values as given in PubChem BioAssay AID504444 (National Center for Advancing Translational Sciences (NCATS), 2011).
Among all 360,000 compounds or so, about 7,500 (2.1%) were called active. The shares of active, inactive and inconclusive entries below differ from those in the screen. The call rests on the fitted dose curve; in most records, active means well fitted inhibition curve with a large enough effect; inconclusive means small, poorly fitted or top-dose-only effect, or effect the other way; inactive means flat fitted curve, though single readings scatter. A potency beside an inconclusive call is a rough fit, not a confirmed value.

Test: Nrf2 qHTS screen for inhibitors; further: nearly all actives have a fitted effect of over 60% in size
Details: A549 ARE-Fluc reporter, luciferase luminescence, 18-24 h; series mostly up to 46 µM
Summary of the method: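 Two sequential reads on A549 ARE_Fluc cells exposed to compound for 18-24 h: a CellTiter-Fluor fluorescence read for viability, then a luciferase luminescence read for Nrf2/ARE activity.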
Potency means the concentration at half of the fitted maximal effect.

Row | SMILES | Potency
1 | c1cncc(CNc2ncnc3sc4c(c23)CCCC4)c1 | inconclusive: 0.651 µM [activator, full curve, poor fit]
2 | CCc1ccc(N2CC(C(=O)Nc3ccc4c(c3)OCCO4)CC2=O)cc1 (stereo not drawn) | inconclusive: 29.1 µM [activator, single point]
3 | CCOC(=O)c1sc2nc(N3CCOCC3)c3c(c2c1N)CCN(Cc1ccccc1)C3 | inactive
4 | COc1ccc(S(=O)(=O)N2CCCCCC2)cc1C(=O)N1CCN(c2ccc(F)cc2)CC1 | inconclusive: 20.6 µM [falling, partial curve, poor fit]
5 | O=C(NCc1ccccn1)Nc1cccc(Cl)c1 | inconclusive: 1.03 µM [activator, full curve]
6 | Cc1ccc(-c2cc(-c3ccc(C)cc3O)[nH]n2)cc1 | inconclusive: 29.1 µM [activator, single point]
7 | O=C(Nc1ccc(C(=O)c2ccccc2)cc1)c1ccccc1 | inconclusive: 1.84 µM [activator, partial curve]
8 | C=CCN1C(=O)N(CC=C)c2cccc3cccc1c23 | inactive
9 | CCCCCC(=O)N1CC2(CC(c3cccc(NC(=O)CC(c4ccccc4)c4ccccc4)c3)=NO2)C[C@@H]1C(N)=O (stereo partly drawn) | inconclusive: 18.4 µM [falling, single point]
10 | COc1ccc(C(=O)NCCC2=CCCCC2)cc1[N+](=O)[O-] | inconclusive: 4.61 µM [activator, full curve]
11 | COc1ccc(NC(=O)CSc2c3c(nc4cc(Cl)ccc24)CCCC3)cc1OC | inconclusive: 29.1 µM [falling, single point]
12 | Cc1c(/C=N/n2cnnc2)c2ccccc2n1CCOc1ccc(Cl)cc1 | inconclusive: 25.9 µM [falling, partial curve, poor fit]
13 | COc1cc(/C=N/NC(=O)c2ccc(CN3c4cccc5cccc(c45)S3(=O)=O)cc2)cc(OC)c1O | inactive
14 | N=c1ccn(Cc2ccc(F)cc2)cc1 | active: 2.31 µM
15 | Cc1ccc(C2C3=C(CC(C)(C)CC3=O)Nc3n[nH]c(C)c32)cc1 (stereo not drawn) | inconclusive: 23.1 µM [activator, single point]
16 | Cc1ccc(N2CCN(C(=S)Nc3ccc(Cl)cc3)CC2)cc1 | inconclusive: 7.31 µM [falling, single point]
17 | CCN=c1scc(-c2ccc(F)cc2)n1/N=C/c1ccccn1 | inconclusive: 23.1 µM [activator, single point]
18 | Cc1ccc(C(=C2C3C=CC2C2C(=O)NC(=O)C32)c2ccc(C)cc2)cc1 (stereo not drawn) | inconclusive: 29.1 µM [falling, single point]

Single entries from above.
Potency, C=CCN1C(=O)N(CC=C)c2cccc3cccc1c23 is entered as inactive
Potency, COc1cc(/C=N/NC(=O)c2ccc(CN3c4cccc5cccc(c45)S3(=O)=O)cc2)cc(OC)c1O is entered as inactive
